# Experimental data: PubChem BioAssay AID504834 (National Center for Advancing Translational Sciences (NCATS), 2011)
# Values joined by “and” are separate entries in the source; they are usually repeats but may differ in a detail not shown here. Equal entries are not always repeated. The whole screen tested about 320,000 compounds, of which about 22,000 (6.9%) were called active. Inconclusive results, whose numbers are uncertain, are shown with a selection of clear calls. Calls come from the whole dose curve; as a rule, active = well fitted inhibition curve with a large enough effect; inconclusive = small, poorly fitted or top-dose-only effect, or another doubt; inactive = no such curve, though single readings can be large or run the other way. Where the call is inconclusive, the potency comes from a doubtful curve fit.
# Assay: Primary qHTS for delayed death inhibitors of the malarial parasite plastid, 96 hour incubation
# Settings: P. falciparum luciferase reporter growth; series mostly up to 28.7 µM; activity change, negative = inhibition: at the top concentration
# Method in brief: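 Compounds incubated with erythrocytes infected by luciferase-expressing P. falciparum (2% hematocrit, 0.05% parasitemia final) for 96 hours, 37 C in 5% CO2. Growth inhibition scored as decreased luciferase luminescence.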
# % is set by controls: 0 for no effect and ±100 for the full control effect; potency is the fitted concentration of half-maximal effect.
Compound,Potency,"activity change, negative = inhibition"
COc1ccc(C2/C(=C(/O)c3ccc(F)cc3)C(=O)C(=O)N2CCCN2CCOCC2)cc1OC (centres undefined),"inconclusive: 18.5 µM [inhibitor, single point]",
CC1CCCCC1NC(=O)CN(C)S(=O)(=O)c1ccc2c(c1)CCC(=O)N2 (centres undefined),"inconclusive: 18.5 µM [inhibitor, single point]",
C/C(CCc1ccccc1)=N/NC(=O)C(=O)NC(C)c1ccccc1 (centres undefined),"inconclusive: 0.208 µM [inhibitor, full curve, poor fit]",
COc1ccc(-c2onc(C)c2C)cc1S(=O)(=O)NCCc1ccco1,"inconclusive: 4.65 µM [inhibitor, partial curve]",
Cc1cc(=O)c(C(=O)Nc2cccc(C(=O)NC3CC3)c2)nn1-c1ccccc1Cl,active: 7.38 µM,
CCOC(=O)C1CCCN(S(=O)(=O)c2ccc(-c3cc(C)no3)s2)C1 (centres undefined),"inconclusive: 18.5 µM [inhibitor, single point]",
CCNS(=O)(=O)c1ccc(CCC(=O)Nc2ccc(C(=O)OC)cc2)cc1,"inconclusive: 0.465 µM [inhibitor, full curve]",
O=C1CCC(C(=O)N2CCCC(C(=O)c3ccc4c5c(cccc35)CC4)C2)=NN1 (centres undefined),"inconclusive: 13.1 µM [inhibitor, partial curve, poor fit]",
COc1ccccc1OCC(=O)NCc1ccco1,,inactive: -22.3%
O=C(Nc1nc(-c2cccs2)c(-c2cccs2)s1)C1(c2ccccc2)CC1,"inconclusive: 18.5 µM [inhibitor, single point]",
COc1ccc(OC)c(NC(=O)CSc2nnnn2-c2ccc3c(c2)OCO3)c1,,inactive: 36.5%
CC(C)(C)CC(C)(C)NCC(O)COc1c(F)cc(Br)cc1F (centres undefined),active: 0.586 µM,
CC/C(=C(\c1ccccc1)c1ccc(OCCN(C)C)cc1)c1ccccc1,"inactive and inconclusive: 19 µM [inhibitor, single point] and inconclusive: 11.7 µM [inhibitor, single point]",
CCOC(=O)COc1ccc2c(c1)C(=O)CC(C)(C)O2,"inconclusive: 5.22 µM [inhibitor, partial curve]",
COc1ccc(Cl)cc1NC(=O)c1nnn(CC(=O)Nc2ccc(C)c(C)c2)c1N,"inconclusive: 3.29 µM [inhibitor, full curve]",
C=C(c1ccccc1O)n1ccnc1,"inconclusive: 2.62 µM [inhibitor, partial curve]",
CC1SC(=NC(=O)C(C)N2C(=O)c3ccccc3C2=O)NC1=O (centres undefined),,inactive: 46.5%
O=S(=O)(Nc1ccc2c(c1)OCO2)c1cccs1,"inconclusive: 18.5 µM [inhibitor, single point]",
Cc1ccc2c(c1)c1c3n2CCN=C3CCC1,"inconclusive: 0.928 µM [inhibitor, partial curve]",
CCN1C=C(C(=O)OC)C(c2cccc(C)c2)C(C(=O)OC)=C1,active: 11.7 µM,
COc1c(C)cc(C(=O)C2CCCN(C(=O)c3ccc4[nH]ccc4c3)C2)cc1C (centres undefined),"inconclusive: 11.7 µM [inhibitor, partial curve, poor fit]",
CCCCC(CC)Cn1c(N)c(C#N)c2nc3ccccc3nc21 (centres undefined),"inconclusive: 10.4 µM [inhibitor, single point]",
CS(=O)(=O)N(CC(N)=O)c1ccc2c(c1)OCO2,"inconclusive: 0.415 µM [inhibitor, full curve, poor fit]",

# Compounds shown so far that contain a furan ring, fused or not:
Compound,Potency,"activity change, negative = inhibition"
COc1ccc(-c2onc(C)c2C)cc1S(=O)(=O)NCCc1ccco1,"inconclusive: 4.65 µM [inhibitor, partial curve]",
COc1ccccc1OCC(=O)NCc1ccco1,,inactive: -22.3%

# Next compounds follow:

Compound,Potency,"activity change, negative = inhibition"
O=C(N/N=C/c1ccc(COc2ccc(Br)cc2)o1)c1ccco1,,inactive: -21.7%
O=C(NCCC(=O)N1CCN(c2ccccc2O)CC1)c1ccc(Cl)cc1,"inconclusive: 20.8 µM [inhibitor, partial curve, poor fit]",
Cc1cc(C(=O)CCl)c(C)n1Cc1ccco1,,inactive: 197%
CCN(CC(=O)Nc1c(F)cccc1F)C(=O)c1cccc(S(=O)(=O)N2CCN(c3ccccc3)CC2)c1,"inconclusive: 18.5 µM [inhibitor, single point]",
NC(=O)c1ccc(NC(=O)C#Cc2ccccc2)cc1,"inconclusive: 18.5 µM [inhibitor, single point]",
OC(COCC1CC=CCC1)Cn1cnc2ccccc21 (centres undefined),"inconclusive: 1.04 µM [inhibitor, partial curve, poor fit]",
COCCn1c(C)nnc1SCC(=O)Nc1ccccc1[N+](=O)[O-],,inactive: 22.5%
CN(C)C(CNc1ncnc2sc3c(c12)CCCCC3)c1ccco1 (centres undefined),"inconclusive: 18.5 µM [inhibitor, single point]",
CC(=O)N1CCN(S(=O)(=O)c2cccc(C(=O)NNC(=O)COc3ccc(Cl)cc3C)c2)CC1,,inactive: 5.66%
Fc1ccccc1-c1csc(=Nc2cccnc2)n1CC1CCCO1 (centres undefined),active: 11.7 µM,
COc1ccc(-c2[nH]c(-c3ccc(C)cc3)nc2SCC(=O)Nc2nccs2)cc1,"inconclusive: 2.62 µM [inhibitor, partial curve, poor fit]",
CC(C)(C)OC(=O)N1CCNc2ccccc2C1,"inconclusive: 0.0029 µM [inhibitor, full curve, poor fit]",
COc1cccc2[nH]c3c(N4CCC5(CC4)OCCO5)ncnc3c12,,inactive: -0.28%
Cc1ccc(S(=O)(=O)N2CCN(Cc3ccccc3)CC2)c(C)c1N(C)S(=O)(=O)c1ccccc1,,inactive: 368%
O=C(OCCNC(=O)c1ccc2ccccc2n1)c1cccnc1,"inconclusive: 10.4 µM [inhibitor, single point]",
O=S(=O)(c1ccc2ccccc2c1)N1CCC(c2nc(-c3ccncc3)no2)CC1,"inconclusive: 13.1 µM [inhibitor, partial curve, poor fit]",
O=C(Nc1ccc(F)cc1)Nc1ccc2ccccc2n1,,inactive: 56.6%
O=C(OCC(=O)N1CCOCC1)c1ccccc1O,,inactive: 87.1%
FC(F)(F)c1ccc(CN2CCN(Cc3ccco3)CC2)cc1,"inconclusive: 18.5 µM [inhibitor, single point]",
COc1cc(C(=O)NCc2nnc(SCC(=O)Nc3ccc4c(c3)OCO4)o2)cc(OC)c1OC,"inconclusive: 5.22 µM [inhibitor, partial curve, poor fit]",
COc1ccc2[nH]c(=O)c(CN(CCO)S(=O)(=O)c3ccc(C)cc3)cc2c1,,inactive: 6.93%
COC(=O)C(Cc1ccccc1)NC(=O)CNC(=O)c1ccccc1OC (centres undefined),,inactive: 15.7%
Cc1cc(NC(=O)CCCC(=O)N(c2ccccc2)C(C(=O)NC2CCCCC2)c2cccs2)no1 (centres undefined),"inconclusive: 18.5 µM [inhibitor, single point]",

Compound,Potency,"activity change, negative = inhibition"
CN1C(=O)CC(Nc2cccc3cccc(N)c23)C1=O (centres undefined),,inactive: 78.4%
CCn1c(-c2ccc[nH]c2=O)nc2ccccc21,,inactive: 44.8%
CCOc1ccc(C2c3c(oc4cc(C)c(C)cc4c3=O)C(=O)N2CCCN(C)C)cc1OC (centres undefined),"inconclusive: 8.28 µM [inhibitor, partial curve, poor fit]",
CN(C)C(CNC(=O)c1cc(S(=O)(=O)N(C)c2ccccc2)ccc1Cl)c1cccs1 (centres undefined),"inconclusive: 9.28 µM [inhibitor, single point]",
O=C(Oc1ccccc1)c1ccc(COC(=O)c2cnccn2)cc1,,inactive: 11.3%
COc1ccc(/C(O)=C2/C(=O)C(=O)N(CC3CCCO3)C2c2ccc(O)c(OC)c2)cc1 (centres undefined),"inconclusive: 0.465 µM [inhibitor, full curve, poor fit]",
CCCc1cc(=O)[nH]c(SCC(=O)c2[nH]c(C)c(C(=O)OCC)c2C)n1,,inactive: -13.8%
CN1CCN(NC(=O)c2ccc(COc3ccccc3Br)o2)CC1,,inactive: 0%
COc1ccc(OC)c(N/C=C/C(=C(C#N)C#N)N(C)C)c1,"inconclusive: 18.5 µM [inhibitor, single point]",
COc1ccc(N(Cc2cc3cc(OC)ccc3[nH]c2=O)S(C)(=O)=O)cc1,"inconclusive: 11.7 µM [inhibitor, single point]",
CCOC(=O)c1[nH]c2ccc(F)cc2c1N=C(C)N(CC)CC,"inconclusive: 2.33 µM [inhibitor, single point]",
CCOc1cc(/C=N/NC(=O)c2cccnc2)ccc1OCc1ccc(C(=O)OC)o1,"inconclusive: 18.5 µM [inhibitor, single point]",
COC(C(=O)Nc1ccc(S(=O)(=O)Nc2ccc(F)cc2)cc1)c1ccccc1 (centres undefined),"inconclusive: 14.7 µM [inhibitor, partial curve, poor fit]",
Cc1ccccc1NC(=O)C12CC3CCC1(C)C3(C)CO2 (centres undefined),,inactive: 13%
CC(=O)Nc1ccc(OC(=O)N2CCCC2)cc1,"inconclusive: 10.4 µM [inhibitor, partial curve, poor fit]",
Cc1ccccc1C(=O)Nc1ccc2c(c1)OCCO2,"inconclusive: 18.5 µM [inhibitor, single point]",
O=C(C1CC=CCC1)N1CCC(CO)(Cc2ccc(Cl)cc2)CC1 (centres undefined),"inconclusive: 16.5 µM [inhibitor, single point]",
COc1ccc(OC)c(C2CC(=O)N3CN(c4cccc(Cl)c4)CSC3=C2C#N)c1 (centres undefined),active: 7.38 µM,
COc1cc(OC)cc(C(=O)Nc2ccc3c(c2)CCCN3C(=O)c2cccs2)c1,"inconclusive: 2.94 µM [inhibitor, partial curve, poor fit]",
CCOC(=O)c1c(C)[nH]c(C(=O)OCc2csc(CC(=O)Nc3ccccc3C)n2)c1C,active: 11.7 µM,
COc1ccc(-n2cc(-c3ccccc3)[nH]c2=S)c(OC)c1,"inconclusive: 13.1 µM [inhibitor, partial curve]",
O=C(COC(=O)CCN1C(=O)c2cccc([N+](=O)[O-])c2C1=O)NCc1ccccc1,,inactive: 31.4%
Cn1c(SCC(=O)C(C)(C)C)nnc1-c1cccnc1,"inconclusive: 11.7 µM [inhibitor, partial curve]",

# 2 successive entries out of the list so far, for reference:
Compound,Potency,"activity change, negative = inhibition"
O=C(COC(=O)CCN1C(=O)c2cccc([N+](=O)[O-])c2C1=O)NCc1ccccc1,,inactive: 31.4%
Cn1c(SCC(=O)C(C)(C)C)nnc1-c1cccnc1,"inconclusive: 11.7 µM [inhibitor, partial curve]",
